These are yes or no findings as the source states them, for the method shown.
Target: ARB2-M0 (residues Ile512, Ile523 and Leu525 mutated to Ala) (Saccharomyces cerevisiae) (UniProt P53973)
Assay: SEC; Superdex 200 10/300 GL, 0.5 ml/min, 25 mM Tris-HCl pH 7.5, 200 mM NaCl; apparent molecular mass against standard proteins; both purified

B1: ARB2-M0 (residues Ile512, Ile523 and Leu525 mutated to Ala) (domain or fragment, UniProt P53973 457-698)
chain: LQKAIRQQQQHYLSDEFNFVTLPLVSMDLPDNTVLCTPNISESNTIIIVVHDTSDAWAKRNVISGTADASSSVIIDNSLDFIKWGLDRKYGIIDVNIPLTLFEPDNYSGMITSQEVLIYLWDNYIKYFPSVAKIAFIGIGDSYSGIVHLLGHRDTRAVTKTVINFLGDKQLKPLVPLVDETLSEWYFKNSLIFSNNSHQCWKENESRKPRKKFGRVLRCDTDGLNNIIEERFEEATDFILDS
B1 was tested, and the binding was “no binding”.
